Laboratory results from paper PMC12160926.
Results are given in words; binding and its absence hold for the method and conditions named. In cells and extracts the contact can be indirect. These calls come from enrichment with a bait or labelling near it, and not all partners need be listed.

Biological target: T1, hexokinase domain-containing 1 (HKDC1) (human (endogenous in HK2)) (UniProt Q2TB90)
T1 sequence: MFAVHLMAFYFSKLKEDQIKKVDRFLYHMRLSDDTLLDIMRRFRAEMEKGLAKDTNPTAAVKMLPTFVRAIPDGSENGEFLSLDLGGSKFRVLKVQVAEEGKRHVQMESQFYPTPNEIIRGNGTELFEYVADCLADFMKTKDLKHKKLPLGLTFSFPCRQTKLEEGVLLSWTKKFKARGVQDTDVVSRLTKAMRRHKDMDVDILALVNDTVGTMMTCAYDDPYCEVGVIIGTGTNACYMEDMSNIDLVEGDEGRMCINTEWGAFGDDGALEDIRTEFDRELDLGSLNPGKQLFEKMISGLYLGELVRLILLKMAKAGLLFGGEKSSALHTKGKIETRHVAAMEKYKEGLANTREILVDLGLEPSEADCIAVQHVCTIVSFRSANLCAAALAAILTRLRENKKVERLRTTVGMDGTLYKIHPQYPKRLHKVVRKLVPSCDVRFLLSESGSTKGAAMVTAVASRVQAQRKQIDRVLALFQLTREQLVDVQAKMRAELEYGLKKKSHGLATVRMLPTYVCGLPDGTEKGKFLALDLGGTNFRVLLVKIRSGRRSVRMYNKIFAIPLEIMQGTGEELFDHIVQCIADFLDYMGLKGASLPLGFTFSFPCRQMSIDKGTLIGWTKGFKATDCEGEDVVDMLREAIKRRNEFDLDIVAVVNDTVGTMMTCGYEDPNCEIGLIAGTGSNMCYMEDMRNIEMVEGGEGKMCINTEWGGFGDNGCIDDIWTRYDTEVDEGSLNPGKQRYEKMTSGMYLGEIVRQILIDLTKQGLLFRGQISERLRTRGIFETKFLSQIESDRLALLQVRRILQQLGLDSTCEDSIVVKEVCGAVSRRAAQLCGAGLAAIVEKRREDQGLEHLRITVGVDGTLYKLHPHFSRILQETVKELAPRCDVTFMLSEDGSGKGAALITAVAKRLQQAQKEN
Test: affinity purification with mass spectrometry; co-IP of HKDC1 from HK2 cells; complexes on magnetic beads digested with trypsin; peptides identified on a Q Exactive and analysed with MaxQuant

binding: binds
Substance: ATPB (from UniProt P06576 48-529)
